From patent US20150011466A1 (priority 2012, published 2015) come the findings set out here.

A short description of this data set: general procedure: Fmoc solid-phase peptide synthesis; Rink amide resin; HOBT, HBTU, HCTU. The conditions noted are these: whole synthesis, scale 5 μmol; for final purity (method not given): Method A.

Where a sequence shows no end group, the ends are not given.

As to TVFRSQEkRRSADIFI, the “final purity (method not given)” value is on record as 73.7% and the isolated mass came to 4.3 mg.

QVFRSSEkRRSADIFI: the “final purity (method not given)” value worked out at 72.4% and the isolated mass is given as 2.3 mg.

As to GVFRSSEkRRSADIFI, the “final purity (method not given)” value was determined as 77.2% and the isolated mass is 2 mg.

For TVGRSSEkRRSADIFI, the “final purity (method not given)” value worked out at 85.8% and the isolated mass is given as 3.3 mg.

In the case of TVFRSSEkRRSADIFI, the “final purity (method not given)” value is on record as 83% and the isolated mass is listed as 1.5 mg.
